In article PMC4231161:
These are yes or no findings as the source states them, for the method shown. Binding seen in cells or lysates may run through a third protein. For some of these results: Binding can be weak; no strength is given. For some of these results: Tags and fused reporters may be left off the sequences shown.

Assays:
[1] = molecular target: T1, GAP45Ty (second copy of GAP45 with a Ty tag) (Toxoplasma gondii) (UniProt Q7Z289); experiment: co-IP; [35S]-methionine/cysteine labelled tachyzoites lysed in CoIP buffer (1% Triton X-100, 50 mM Tris-HCl pH 8, 150 mM NaCl); tagged bait precipitated with monoclonal anti-Ty or anti-Myc and Protein A-Sepharose, 4 C; eluted proteins seen by autoradiography; also in MyoC-KO background and in GAP45-iKO +/- ATc
T1 sequence: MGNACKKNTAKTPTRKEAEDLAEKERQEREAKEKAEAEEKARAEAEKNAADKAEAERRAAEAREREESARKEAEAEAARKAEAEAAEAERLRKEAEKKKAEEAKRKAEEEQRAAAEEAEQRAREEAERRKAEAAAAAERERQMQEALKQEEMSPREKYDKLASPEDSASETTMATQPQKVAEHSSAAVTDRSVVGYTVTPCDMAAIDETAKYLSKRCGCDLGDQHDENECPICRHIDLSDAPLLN

[2] = molecular target: T2, gliding-associated protein GAP45 (Toxoplasma gondii (endogenous in tachyzoites)) (UniProt Q7Z289); experiment: co-IP; polyclonal anti-GAP45 antibodies on [35S]-labelled GAP80-KO tachyzoites, Triton X-100 lysate, autoradiography
T2 sequence: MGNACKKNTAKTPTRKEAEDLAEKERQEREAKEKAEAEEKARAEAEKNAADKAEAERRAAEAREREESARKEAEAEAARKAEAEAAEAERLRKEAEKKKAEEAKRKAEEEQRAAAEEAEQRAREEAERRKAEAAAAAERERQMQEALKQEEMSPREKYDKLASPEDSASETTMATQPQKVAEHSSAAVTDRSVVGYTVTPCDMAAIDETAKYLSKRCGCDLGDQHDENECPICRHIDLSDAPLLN

[3] = molecular target: T2, gliding-associated protein GAP45 (Toxoplasma gondii (endogenous in tachyzoites)); experiment: condition: only in Ku80-KO parasites, where GAP80 is present; co-IP; polyclonal anti-GAP45 antibodies on [35S]-labelled Ku80-KO tachyzoites (GAP80 present), Triton X-100 lysate, autoradiography
[4] = molecular target: KI-MyoC-3Ty (MyoC C-terminally tagged at the endogenous locus) (Toxoplasma gondii); experiment: co-IP; [35S]-methionine/cysteine labelled tachyzoites lysed in CoIP buffer (1% Triton X-100, 50 mM Tris-HCl pH 8, 150 mM NaCl); tagged bait precipitated with monoclonal anti-Ty or anti-Myc and Protein A-Sepharose, 4 C; eluted proteins seen by autoradiography; also in MyoC-KO background and in GAP45-iKO +/- ATc

## myosin C (MyoC)
[1]
  binding: no binding
[2]
  binding: binds
[3]
  binding: no binding

B1: gliding-associated protein GAP45 (protein, UniProt Q7Z289 1-245)
chain: MGNACKKNTAKTPTRKEAEDLAEKERQEREAKEKAEAEEKARAEAEKNAADKAEAERRAAEAREREESARKEAEAEAARKAEAEAAEAERLRKEAEKKKAEEAKRKAEEEQRAAAEEAEQRAREEAERRKAEAAAAAERERQMQEALKQEEMSPREKYDKLASPEDSASETTMATQPQKVAEHSSAAVTDRSVVGYTVTPCDMAAIDETAKYLSKRCGCDLGDQHDENECPICRHIDLSDAPLLN
[4]
  binding: no binding
